Reference: patent CN115433279A
These are yes or no findings as the source states them, for the method shown. Some entries that bind do so weakly or less than the wild type.

Protein sequences, listed by entry. Tags and fused reporters are not part of them. Residues count along the entry.
UniProt P26951, residues 19-378: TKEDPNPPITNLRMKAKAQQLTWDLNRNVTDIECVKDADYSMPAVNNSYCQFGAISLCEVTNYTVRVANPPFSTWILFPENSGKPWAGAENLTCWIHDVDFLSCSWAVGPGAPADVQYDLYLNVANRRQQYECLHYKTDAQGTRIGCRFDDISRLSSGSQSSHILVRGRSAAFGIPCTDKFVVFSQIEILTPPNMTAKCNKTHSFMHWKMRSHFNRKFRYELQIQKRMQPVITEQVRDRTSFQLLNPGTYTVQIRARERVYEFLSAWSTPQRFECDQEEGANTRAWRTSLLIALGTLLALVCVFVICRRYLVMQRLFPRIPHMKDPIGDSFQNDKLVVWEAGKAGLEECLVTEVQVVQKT

B1: 命名为1E6的兔重组单克隆抗体 (antibody, V domains shown)
VH: QSVEESGGRLVTPGTPLTLACTVSGFDISSYSMSWVRQAPGKGLEWIGSGIIGGSTYYASWAKGRFTISKTSTTVDLKITSPTTEDTATYFCARFAGTSSTDYYDLWGQGTLVTVSS
VL: TQTPSSVEAAVGGTVTIKCQASQSIDSYLAWYQQKPGQPPKLLIYDTSTLASGVSSRFKGSGSGTQFTLTISDLECADAATYYCQNYWIITTFGFGGGTEVVVK
B2: 命名为5D3的兔重组单克隆抗体 (antibody, V domains shown)
VH: GGAEGGLVKPGGSLELCCKASGFSLSNLRVNWVRQAPGKGLEWIGCIISDSSGTTSYASWVNGRFTLSRDIDQNTGCLQLNSLTVADTAMYYCASRVNITSYDLSLWGQGTLVTVSS
VL: AAVLTQTPSPVSAAVGGTVSISCQSSKSVYNNKWLSWFQQKPGQPPKLLIYSASTLASGVPSRFSGSGSGTDFTLTISDVQCDDAATYYCAGGYSGSSDTYSFGGGTEVVVK

How the values were obtained:
CD123全长蛋白 (细胞膜上CD123) [1] = target: CD123全长蛋白 (细胞膜上CD123) (UniProt P26951); test: flow cytometry on 293 cells transfected with full-length CD123
CD123全长蛋白 (细胞膜上CD123) [2] = target: CD123全长蛋白 (细胞膜上CD123) (UniProt P26951); test: flow cytometry on Raji cells, antibody titration

Binder | binding (CD123全长蛋白 (细胞膜上CD123) [1]) | binding (CD123全长蛋白 (细胞膜上CD123) [2])
B1 | binds | binds
B2 | binds | binds
